For at least one entry, the source does not settle the construct or the ends of the probe. At least one verdict was read from the data and is not stated in words by the source. Protein sequences can lack the tags named with them.

The target of data set [1] is T1, mtSSB WT (His-tag, C-terminal Cys) (human) (UniProt Q04837).
T1 sequence (looked up): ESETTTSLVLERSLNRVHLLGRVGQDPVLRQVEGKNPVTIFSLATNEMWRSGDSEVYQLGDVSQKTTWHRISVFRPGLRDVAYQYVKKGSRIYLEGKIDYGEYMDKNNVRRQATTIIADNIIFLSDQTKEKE
Nature of the data set: EMSA. The following applies: 10 mM Mg2+, 2 mM ATP, 100-200 nM monomer, EMSA: 20 mM Tris-HCl pH 7.8, 10 mM MgCl2, 0.1 mg/ml BSA, 10 mM DTT, 10% glycerol, room temperature, recombinant protein, residues 17-148, protein details: N-terminal His, extra C-terminal Cys, label: 5' ATTO647 (ATTO647N in Fig S1), single-stranded DNA. A general note: A gel shift assay detects complexes by their altered migration in electrophoresis.

In data set [2] the target is T2, mtSSB WT-Alexa555/647 (human) (UniProt Q04837).
T2 sequence (looked up): T1 sequence (looked up)
The experiment in a line: EMSA. The following applies: Alexa555, 10 mM Mg2+, 2 mM ATP, labelling checked for effect on binding, EMSA: 20 mM Tris-HCl pH 7.8, 10 mM MgCl2, 0.1 mg/ml BSA, 10 mM DTT, 10% glycerol, room temperature, recombinant protein, residues 17-148, label: 5' ATTO647 (ATTO647N in Fig S1), single-stranded DNA.

“GTTAGTTGGGGGGTGACTGTTA [22-nt oligonucleotide]”: the binding result in data set [1] and in data set [2] was “binds” in each case.

Values taken from paper PMC11162770, “The mutation R107Q alters mtSSB ssDNA compaction ability and binding dynamics” (Nucleic Acids Research, 2024).
